The source of these data is article PMC9163791.

Chains of the proteins cited; added tags and fusions are not shown.
UniProt P28482: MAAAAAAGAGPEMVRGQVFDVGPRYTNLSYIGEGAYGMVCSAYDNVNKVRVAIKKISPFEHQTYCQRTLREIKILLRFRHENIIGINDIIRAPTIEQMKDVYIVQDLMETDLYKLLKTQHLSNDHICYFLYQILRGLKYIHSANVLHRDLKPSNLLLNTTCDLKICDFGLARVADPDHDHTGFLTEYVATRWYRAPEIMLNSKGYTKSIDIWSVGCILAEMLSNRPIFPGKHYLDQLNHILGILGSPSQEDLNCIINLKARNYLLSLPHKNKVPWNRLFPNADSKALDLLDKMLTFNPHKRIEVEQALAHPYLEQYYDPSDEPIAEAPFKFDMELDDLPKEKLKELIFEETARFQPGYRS
UniProt Q9HCE7: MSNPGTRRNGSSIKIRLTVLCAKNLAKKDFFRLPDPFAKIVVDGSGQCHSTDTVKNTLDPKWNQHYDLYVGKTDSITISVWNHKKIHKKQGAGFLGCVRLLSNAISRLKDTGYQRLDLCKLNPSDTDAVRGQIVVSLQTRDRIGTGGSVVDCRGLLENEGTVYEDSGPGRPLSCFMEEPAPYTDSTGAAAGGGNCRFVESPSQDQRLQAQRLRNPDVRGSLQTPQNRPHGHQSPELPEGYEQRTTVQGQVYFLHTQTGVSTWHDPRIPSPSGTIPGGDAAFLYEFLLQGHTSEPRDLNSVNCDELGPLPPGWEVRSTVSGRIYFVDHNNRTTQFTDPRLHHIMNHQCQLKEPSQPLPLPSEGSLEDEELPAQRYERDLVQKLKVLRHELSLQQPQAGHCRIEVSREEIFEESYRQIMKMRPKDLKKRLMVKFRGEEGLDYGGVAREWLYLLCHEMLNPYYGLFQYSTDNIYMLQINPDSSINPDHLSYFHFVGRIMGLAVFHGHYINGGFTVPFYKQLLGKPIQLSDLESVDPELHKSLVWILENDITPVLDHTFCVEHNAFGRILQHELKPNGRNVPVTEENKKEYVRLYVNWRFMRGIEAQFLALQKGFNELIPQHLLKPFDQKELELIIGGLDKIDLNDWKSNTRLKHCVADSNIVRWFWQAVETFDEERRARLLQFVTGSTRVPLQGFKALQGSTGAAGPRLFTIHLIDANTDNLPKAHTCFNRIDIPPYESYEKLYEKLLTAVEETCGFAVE

These are yes or no findings as the source states them, for the method shown. In cells and extracts the contact can be indirect. Here binding means that the protein was enriched with, or labelled near, the bait; the list need not be complete.

This assay concerns the target Flag-tagged ERK2 (human) (UniProt P28482). As to the kind of experiment: affinity purification with mass spectrometry; anti-Flag IP from MCF-7 cells transfected with Flag-ERK2, SDS-PAGE, Coomassie staining, the indicated band analysed by mass spectrometry.

In the case of “endogenous Smurf1 (MCF-7) (from UniProt Q9HCE7 1-757)”, the binding result was “binds”.
